Results are given in words; binding and its absence hold for the method and conditions named. In cells and extracts the contact can be indirect. Some binding calls cover weakened binding; strength is not graded here.
Biological target: T1, CCCTC-binding factor (CTCF) (UniProt P49711)
T1 sequence: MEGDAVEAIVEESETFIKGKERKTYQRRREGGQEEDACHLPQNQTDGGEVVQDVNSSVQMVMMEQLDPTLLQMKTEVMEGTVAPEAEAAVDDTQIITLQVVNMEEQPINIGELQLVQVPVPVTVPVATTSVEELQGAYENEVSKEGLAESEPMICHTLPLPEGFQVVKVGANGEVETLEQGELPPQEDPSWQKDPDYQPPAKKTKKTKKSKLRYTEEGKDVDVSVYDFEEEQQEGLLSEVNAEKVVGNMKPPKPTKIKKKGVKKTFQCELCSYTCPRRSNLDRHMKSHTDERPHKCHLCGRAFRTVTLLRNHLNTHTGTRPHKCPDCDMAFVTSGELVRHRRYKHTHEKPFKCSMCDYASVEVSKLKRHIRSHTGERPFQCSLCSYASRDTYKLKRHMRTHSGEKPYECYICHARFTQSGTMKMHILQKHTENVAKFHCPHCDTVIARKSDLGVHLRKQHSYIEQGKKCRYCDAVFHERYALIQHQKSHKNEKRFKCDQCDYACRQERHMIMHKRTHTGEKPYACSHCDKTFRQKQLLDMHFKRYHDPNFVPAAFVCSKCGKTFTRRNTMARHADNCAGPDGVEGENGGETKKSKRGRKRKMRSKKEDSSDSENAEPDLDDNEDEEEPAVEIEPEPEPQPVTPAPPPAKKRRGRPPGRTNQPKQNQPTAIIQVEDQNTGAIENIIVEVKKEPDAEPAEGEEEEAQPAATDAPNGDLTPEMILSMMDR
Assay: co-IP; endogenous proteins; lysis buffer 20 mM Tris-HCl pH 7.5, 1% Triton X-100, 150 mM NaCl, 10% glycerol; antibody on Protein A/G beads, 4 °C; blotted with anti-CTCF and anti-CBP; cell line not stated

The chains behind the UniProt entries cited, without tags or fusion partners.
UniProt Q92793: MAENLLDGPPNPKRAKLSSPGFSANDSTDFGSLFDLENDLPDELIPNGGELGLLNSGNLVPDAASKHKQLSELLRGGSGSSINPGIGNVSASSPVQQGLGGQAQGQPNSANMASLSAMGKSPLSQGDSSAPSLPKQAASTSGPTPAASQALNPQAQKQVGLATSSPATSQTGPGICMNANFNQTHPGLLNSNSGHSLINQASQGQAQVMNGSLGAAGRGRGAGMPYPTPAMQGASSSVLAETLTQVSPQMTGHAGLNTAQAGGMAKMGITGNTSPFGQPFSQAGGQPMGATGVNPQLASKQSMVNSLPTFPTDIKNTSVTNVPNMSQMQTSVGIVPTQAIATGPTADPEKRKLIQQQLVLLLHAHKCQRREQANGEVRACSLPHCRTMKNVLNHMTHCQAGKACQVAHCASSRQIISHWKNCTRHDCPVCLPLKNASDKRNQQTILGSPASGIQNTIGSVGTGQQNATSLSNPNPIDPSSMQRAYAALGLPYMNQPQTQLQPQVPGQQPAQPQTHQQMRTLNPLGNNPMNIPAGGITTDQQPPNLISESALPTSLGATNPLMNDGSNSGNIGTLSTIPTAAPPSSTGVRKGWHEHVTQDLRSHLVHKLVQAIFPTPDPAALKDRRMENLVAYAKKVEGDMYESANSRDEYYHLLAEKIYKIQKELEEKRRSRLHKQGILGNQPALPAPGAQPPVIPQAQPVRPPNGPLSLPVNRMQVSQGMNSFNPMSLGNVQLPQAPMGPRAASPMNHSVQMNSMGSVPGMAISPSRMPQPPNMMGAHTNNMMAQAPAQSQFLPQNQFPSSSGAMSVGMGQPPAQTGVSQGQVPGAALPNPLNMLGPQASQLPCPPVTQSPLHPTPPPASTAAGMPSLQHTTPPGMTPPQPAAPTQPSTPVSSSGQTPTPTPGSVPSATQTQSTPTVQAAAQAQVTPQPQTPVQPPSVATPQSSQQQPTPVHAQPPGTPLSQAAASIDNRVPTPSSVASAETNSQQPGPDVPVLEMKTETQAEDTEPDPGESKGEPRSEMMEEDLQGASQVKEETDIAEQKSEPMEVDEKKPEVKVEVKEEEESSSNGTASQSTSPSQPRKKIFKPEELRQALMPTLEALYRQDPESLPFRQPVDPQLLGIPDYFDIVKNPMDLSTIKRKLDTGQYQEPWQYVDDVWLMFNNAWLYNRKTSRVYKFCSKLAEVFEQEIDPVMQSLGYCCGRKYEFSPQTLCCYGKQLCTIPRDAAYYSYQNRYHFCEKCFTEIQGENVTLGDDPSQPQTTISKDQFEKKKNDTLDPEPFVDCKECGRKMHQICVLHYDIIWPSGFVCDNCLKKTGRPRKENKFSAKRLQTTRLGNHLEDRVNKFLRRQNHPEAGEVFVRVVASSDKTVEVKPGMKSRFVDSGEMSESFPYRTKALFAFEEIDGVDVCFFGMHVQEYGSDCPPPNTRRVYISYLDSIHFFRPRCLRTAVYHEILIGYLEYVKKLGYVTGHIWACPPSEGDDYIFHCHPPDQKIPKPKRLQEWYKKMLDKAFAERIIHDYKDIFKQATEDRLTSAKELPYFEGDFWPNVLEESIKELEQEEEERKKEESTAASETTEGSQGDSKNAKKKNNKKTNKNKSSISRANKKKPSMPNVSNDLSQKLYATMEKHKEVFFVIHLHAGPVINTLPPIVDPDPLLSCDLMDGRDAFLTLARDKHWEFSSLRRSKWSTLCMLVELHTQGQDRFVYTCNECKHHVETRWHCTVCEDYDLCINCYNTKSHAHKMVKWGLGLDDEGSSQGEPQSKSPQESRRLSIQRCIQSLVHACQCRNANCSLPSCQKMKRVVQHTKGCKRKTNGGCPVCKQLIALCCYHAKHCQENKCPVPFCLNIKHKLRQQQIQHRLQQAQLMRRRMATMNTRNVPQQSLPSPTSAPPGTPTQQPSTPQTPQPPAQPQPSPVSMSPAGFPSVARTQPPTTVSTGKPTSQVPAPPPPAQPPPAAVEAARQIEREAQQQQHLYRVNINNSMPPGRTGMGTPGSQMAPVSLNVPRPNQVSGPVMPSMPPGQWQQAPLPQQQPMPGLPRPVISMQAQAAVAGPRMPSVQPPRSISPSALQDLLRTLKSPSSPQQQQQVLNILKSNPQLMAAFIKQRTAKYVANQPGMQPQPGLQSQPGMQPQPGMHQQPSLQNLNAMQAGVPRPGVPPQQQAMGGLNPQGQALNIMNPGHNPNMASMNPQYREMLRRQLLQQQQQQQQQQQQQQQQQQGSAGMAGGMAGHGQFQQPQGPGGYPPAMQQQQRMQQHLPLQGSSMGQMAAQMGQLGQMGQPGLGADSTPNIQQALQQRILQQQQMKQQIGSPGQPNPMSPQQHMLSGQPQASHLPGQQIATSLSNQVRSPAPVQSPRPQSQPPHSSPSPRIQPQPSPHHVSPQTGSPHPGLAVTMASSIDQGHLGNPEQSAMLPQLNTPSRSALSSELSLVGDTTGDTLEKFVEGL

CREB-binding protein (CBP) (from UniProt Q92793 1-2442) (enzyme)
binding: binds

Source: PMC9482892
